PubChem BioAssay AID1508600 (Functional Genomics Laboratory (NCATS/FGL), 2020)
The whole screen tested about 53,000 sequences, of which about 3,700 (7%) were called active.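 The calls were made as follows: active = gene knockdowns whose robust z-score for IL-1 alpha signal is at least 2 or at most -2, so actives lie on both sides; inactive = the rest.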 The list shows a part of the results.

Test: Components of the Cytosolic LPS Sensing Pathway: Gene Identification via Genome-wide siRNA Screen;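 also: robust z of the log signal after scaling to non-targeting control siRNA wells of the plate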
Details: RAW264.7 macrophages, IL-1a HTRF, actives lie on both sides, screened at 100 nM (by protocol), cells primed 5 h with Pam3CSK4 first
Summary of the method: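 RAW264.7; siRNA 100 nM final, RNAiMAX, 48h 37 degrees C; Pam3CSK4 5 h; LipidA + TransIT-TKO 24 h; IL-1a HTRF; CellTiter-Glo viability; robust z vs negative-control median.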

z-score, active:
GCUCCUGAACUAAUACAAGTT against Melk 5
GGGUGGAGAACCAAGUUUUTT against Tmed6 3.21
GGCAAUCCCAUAGAGGCUGTT against Mief2 -2.64
GGCCAGCUCUCUUUUGCUATT against Cflar 2.5
CCUGAAAGAUGCUCUCUAUTT against Inpp4b 4.27
GGAAUUCUCUCAGCAGAAGTT against 1110038F14Rik -2.17
GGGUCUUAUGGAAGUGUUUTT against Stk3 7.27
GGCCCACGUCCUGUACAUUTT against Tdrd1 3.38

z-score, inactive:
GCUGUCACUUCAAUAACUGTT against Bach2os 0.957
GGGUCACCAUCAAGAUGGATT against Erg 0.0262
GGUGCAUAAAACCCUUAAATT against Rbms1 -1.56
GGAAGGAGAUUACAUUGUUTT against Rhpn2 1.5
CGAAGUACCUGAAUUUUGCTT against Pde6b -1.14
GGAAAAAUGUGCUGUGUGGTT against Tcea1 -1.67
GGAUAUAACCAUCCUCUGUTT against Zscan29 0.578
GGCUCUUUACAGAUAUUCCTT against Cdc42se2 -0.335
GCAGUUACGUAGAAAGUCUTT against Prdx6b -1.25
GGUCAACAACAACUCCGUUTT against Ret 0.625
GGUUUUUAACCAAACAUGATT against Actr3 -0.784
CCUCAAUUCGGACAAGCUGTT against Scnn1a -1.29
GCAACAUCCAGGCUUGCCUTT against Tmem107 -0.874
GAGCCUUUCCUUUCUGGACTT against Olfr466 0.292
GCAGUGGGAAUCGAUAAAGTT against Fgfr2 -0.876
CGUAGUGAUCCUGUUCCAGTT against Lsr -0.745
GCCAGACUGAGCUACAAAATT against Gm9732 -1.3
GGUAUGAGUACAAAUACUGTT against Tek 1.97
UUACUCAGUUCUCACCUUCTT against Olfr970 -0.24
GCGUGGAAAAGUGUUACCATT against Rhbdd1 0.691
GGCUAAGUGGGUGUUCACGTT against Slc24a4 -0.214
CCCAAGAAUGACCAAGUAGTT against Gpr17 -1.07
CCAUUACAGGGUUUUUUAUTT against Slc37a3 -0.62
GGCUUUUGACUUUACCCUATT against Acy3 -1.3
GGAGUCGUCAACUCUGGCUTT against Lsm10 0.161
GGUGGAUGAAGUUAUUGAUTT against Vamp4 0.809
GGGCAAAGCCUUCAACCCUTT against Insl6 -0.038
UUCGGAUCCUAACUUCAACTT against Zmynd12 -0.716
GCCUGUCGUACCUCCUUUATT against Folr2 0.793
GGGAAAGAAAGGGUACAAUTT against Nfxl1 -0.123
GACCGAGUUCAAAGCGAACTT against Atp5e 0.323
GGCUGUCAUGCAUUAUAUGTT against Tfeb -0.535
CCGGAAGAUCAAUAUAAGATT against Crisp2 1.33
GGCUAUUGUUUCAUCCUGATT against Emp1 -1.25
GGAACUUUUUAAGAUGCGUTT against Ranbp1 -0.36
GGAACUACUUUGAGAGCACTT against Arl2 0.209
CCAAAGGAAUGCGUUUUACTT against Msh2 1.83
GGCAGACUCUGCCUACUUATT against Utf1 1.01
GGAUGGACAACAUCAAACATT against Ltbp2 0.678
GGUCACGGAACAAAAAACCTT against Tnrc6b -0.119
GGAGAAAACACAAUGUCUUTT against Limd1 0.441
GCUGACAAAGUCGUUUCCUTT against Olfr732 -0.74
CGAGUAUGCCGAAAACACUTT against Car6 0.41
CCAGUGAUUAAUGUGACCUTT against BC048679 -1.9
GGGUGCGGAAAUUCAUUAATT against Mpv17l2 0.803
GGAAUAAAGUGUUGUGUCATT against Wfdc15b -0.118
GGUGGAAUUUACAUAAUGATT against Igsf11 0.839
GGCCAACAAGAUUCUAGAGTT against Slc44a2 1.34
GGUGUUAGAAGUCAACGGUTT against Pard6b 0.482
GGGCAAACUCAUUUUUUGATT against F10 -0.157
CCACAGAACAGCCAUCAUGTT against Ankrd7 0.0949
GGACGCAUGAUGUGGGUUCTT against Tmem41a -0.626
GGCUGUUCAAAAAUUUCGGTT against Sox17 -0.261
CCCUAGGGUGAUGAAGCAUTT against Ckmt2 -0.984
CCGAAUUUCCAAAAAUGCATT against Foxd3 -0.244
CCUAAACGUGCACAUUUUATT against Ifitm10 -0.347
GGUUACCUCCACCAGAUCATT against Avpi1 -0.326
CCAUAACCAACGUGUUCGUTT against Adrb3 -0.273
GCUAACAAAUGUCAGCAUGTT against Popdc3 0.319
GCGUAUCUGAUUGACAGAGTT against Kctd2 1.62
GCCAAAGAUUAUCGAGUGUTT against Klhdc8a -0.594
GGAUGACUUUGAGUGUGUGTT against Ciao1 -0.55
CCUUAAAACUUUCUGGUUGTT against Akirin1 -0.449
GCUAUUGAGUCGUGAGACUTT against Apoc3 -0.869
GGUUUGACUAACUUUCCUUTT against Fbxl15 0.198
GCUAUGAAGCAAUUGUGGATT against Fasn -0.527
GCUCAAAAAACCGAAAUGATT against Cd274 -1.03
GGAGAAGAAACUGAACCUGTT against Ppan -0.835
CCUAUGUAUGUCAACAUACTT against 1700028P14Rik -0.13
GGCUGAAGUUCAUGAUGGCTT against Cd209d 1.7
GCACGAUUUAGACACCAAGTT against Mtif3 0.195
GGAGGAGAUCGUGAUCUGCTT against Ubqln4 1.2
CCAUUAGGAUGACCUCCAUTT against Slc38a3 -0.698
GUGGAUUAGGGAAUUUCAUTT against Mrgprb1 1.84
GGAGAUGCGAGUACAACUGTT against Ermn 0.479
GGUCAAGCAAGUGUUGGUUTT against Gart -0.0147
GGUACAUCUAUUUCUUGUUTT against Ncam2 -1.2
GGCAACUUGGGAGUUUCACTT against Kcnab1 1.41
GGUACACAGCAGUGGUCAUTT against Drd3 -0.707
GGAAACAAAAAGAAUGCUGTT against Apex1 0.697
GGGUGACGAUAUCGAAAUGTT against Vstm2b -1.59
CCUUCAACUCCUCACUUCCTT against H2-D1 0.493
GGUUGUUAGAGGUAAUUUGTT against Zfp128 0.484
GGUCGAGACUCCAUCAUAATT against Wdr48 -1.46
GGAACAGAUAAAGAGGGAATT against Zfp326 -0.735
GCUCUAGUUCUGUAAAGUGTT against D630004N19Rik -0.858
CCGGAAAAUGCUACUGAAATT against Pcdhb10 -0.662
GGGUUAUAGGUGUGUGUGCTT against Gemin6 -0.389
GGCAUUCUCCACGUGCUCUTT against Olfr273 -1.35
GGGCUCGAAUCCAUCACAGTT against Pcdhb6 0.0695
CGUGUAAAAGCCGGAUUGATT against 1500015L24Rik -0.00617
GGAAGUCUCAGACCACAACTT against Ech1 -0.581
GCAUUCUGAAGCUUCCAUCTT against Olfr1112 0.577
GGACUUGACUAGACUUUCUTT against Cops7b 0.157
GGAAAUGUUAUCUUGGAAUTT against Zfand1 0.623
GCACGUACUGUUCUAGAAGTT against Kcng4 1.48
CCUAACCAUCGACUUCUUCTT against Wfs1 -0.189
CGAAAUUGCUGACUCAGAATT against Arl6ip6 0.549
GGCUAAAAAUAACAUCACCTT against Gabra2 -0.164

Quoted at random: 5 records from the list.
z-score, inactive:
GCGUAUCUGAUUGACAGAGTT against Kctd2 1.62
GGGUGCGGAAAUUCAUUAATT against Mpv17l2 0.803
GAGCCUUUCCUUUCUGGACTT against Olfr466 0.292
GGAACUACUUUGAGAGCACTT against Arl2 0.209
CGUAGUGAUCCUGUUCCAGTT against Lsr -0.745
